Laboratory results as given in article doi:10.1101/2024.08.22.609103.
No constants are given. Whether binding was seen depends on the method and setting. Binding seen in cells or lysates may run through a third protein. Some entries that bind do so weakly or less than the wild type. Where a sequence is shown, tags or fusion partners need not be part of it.

By UniProt entry, the sequences of proteins in these tests, tags left out.
UniProt Q9P2D1: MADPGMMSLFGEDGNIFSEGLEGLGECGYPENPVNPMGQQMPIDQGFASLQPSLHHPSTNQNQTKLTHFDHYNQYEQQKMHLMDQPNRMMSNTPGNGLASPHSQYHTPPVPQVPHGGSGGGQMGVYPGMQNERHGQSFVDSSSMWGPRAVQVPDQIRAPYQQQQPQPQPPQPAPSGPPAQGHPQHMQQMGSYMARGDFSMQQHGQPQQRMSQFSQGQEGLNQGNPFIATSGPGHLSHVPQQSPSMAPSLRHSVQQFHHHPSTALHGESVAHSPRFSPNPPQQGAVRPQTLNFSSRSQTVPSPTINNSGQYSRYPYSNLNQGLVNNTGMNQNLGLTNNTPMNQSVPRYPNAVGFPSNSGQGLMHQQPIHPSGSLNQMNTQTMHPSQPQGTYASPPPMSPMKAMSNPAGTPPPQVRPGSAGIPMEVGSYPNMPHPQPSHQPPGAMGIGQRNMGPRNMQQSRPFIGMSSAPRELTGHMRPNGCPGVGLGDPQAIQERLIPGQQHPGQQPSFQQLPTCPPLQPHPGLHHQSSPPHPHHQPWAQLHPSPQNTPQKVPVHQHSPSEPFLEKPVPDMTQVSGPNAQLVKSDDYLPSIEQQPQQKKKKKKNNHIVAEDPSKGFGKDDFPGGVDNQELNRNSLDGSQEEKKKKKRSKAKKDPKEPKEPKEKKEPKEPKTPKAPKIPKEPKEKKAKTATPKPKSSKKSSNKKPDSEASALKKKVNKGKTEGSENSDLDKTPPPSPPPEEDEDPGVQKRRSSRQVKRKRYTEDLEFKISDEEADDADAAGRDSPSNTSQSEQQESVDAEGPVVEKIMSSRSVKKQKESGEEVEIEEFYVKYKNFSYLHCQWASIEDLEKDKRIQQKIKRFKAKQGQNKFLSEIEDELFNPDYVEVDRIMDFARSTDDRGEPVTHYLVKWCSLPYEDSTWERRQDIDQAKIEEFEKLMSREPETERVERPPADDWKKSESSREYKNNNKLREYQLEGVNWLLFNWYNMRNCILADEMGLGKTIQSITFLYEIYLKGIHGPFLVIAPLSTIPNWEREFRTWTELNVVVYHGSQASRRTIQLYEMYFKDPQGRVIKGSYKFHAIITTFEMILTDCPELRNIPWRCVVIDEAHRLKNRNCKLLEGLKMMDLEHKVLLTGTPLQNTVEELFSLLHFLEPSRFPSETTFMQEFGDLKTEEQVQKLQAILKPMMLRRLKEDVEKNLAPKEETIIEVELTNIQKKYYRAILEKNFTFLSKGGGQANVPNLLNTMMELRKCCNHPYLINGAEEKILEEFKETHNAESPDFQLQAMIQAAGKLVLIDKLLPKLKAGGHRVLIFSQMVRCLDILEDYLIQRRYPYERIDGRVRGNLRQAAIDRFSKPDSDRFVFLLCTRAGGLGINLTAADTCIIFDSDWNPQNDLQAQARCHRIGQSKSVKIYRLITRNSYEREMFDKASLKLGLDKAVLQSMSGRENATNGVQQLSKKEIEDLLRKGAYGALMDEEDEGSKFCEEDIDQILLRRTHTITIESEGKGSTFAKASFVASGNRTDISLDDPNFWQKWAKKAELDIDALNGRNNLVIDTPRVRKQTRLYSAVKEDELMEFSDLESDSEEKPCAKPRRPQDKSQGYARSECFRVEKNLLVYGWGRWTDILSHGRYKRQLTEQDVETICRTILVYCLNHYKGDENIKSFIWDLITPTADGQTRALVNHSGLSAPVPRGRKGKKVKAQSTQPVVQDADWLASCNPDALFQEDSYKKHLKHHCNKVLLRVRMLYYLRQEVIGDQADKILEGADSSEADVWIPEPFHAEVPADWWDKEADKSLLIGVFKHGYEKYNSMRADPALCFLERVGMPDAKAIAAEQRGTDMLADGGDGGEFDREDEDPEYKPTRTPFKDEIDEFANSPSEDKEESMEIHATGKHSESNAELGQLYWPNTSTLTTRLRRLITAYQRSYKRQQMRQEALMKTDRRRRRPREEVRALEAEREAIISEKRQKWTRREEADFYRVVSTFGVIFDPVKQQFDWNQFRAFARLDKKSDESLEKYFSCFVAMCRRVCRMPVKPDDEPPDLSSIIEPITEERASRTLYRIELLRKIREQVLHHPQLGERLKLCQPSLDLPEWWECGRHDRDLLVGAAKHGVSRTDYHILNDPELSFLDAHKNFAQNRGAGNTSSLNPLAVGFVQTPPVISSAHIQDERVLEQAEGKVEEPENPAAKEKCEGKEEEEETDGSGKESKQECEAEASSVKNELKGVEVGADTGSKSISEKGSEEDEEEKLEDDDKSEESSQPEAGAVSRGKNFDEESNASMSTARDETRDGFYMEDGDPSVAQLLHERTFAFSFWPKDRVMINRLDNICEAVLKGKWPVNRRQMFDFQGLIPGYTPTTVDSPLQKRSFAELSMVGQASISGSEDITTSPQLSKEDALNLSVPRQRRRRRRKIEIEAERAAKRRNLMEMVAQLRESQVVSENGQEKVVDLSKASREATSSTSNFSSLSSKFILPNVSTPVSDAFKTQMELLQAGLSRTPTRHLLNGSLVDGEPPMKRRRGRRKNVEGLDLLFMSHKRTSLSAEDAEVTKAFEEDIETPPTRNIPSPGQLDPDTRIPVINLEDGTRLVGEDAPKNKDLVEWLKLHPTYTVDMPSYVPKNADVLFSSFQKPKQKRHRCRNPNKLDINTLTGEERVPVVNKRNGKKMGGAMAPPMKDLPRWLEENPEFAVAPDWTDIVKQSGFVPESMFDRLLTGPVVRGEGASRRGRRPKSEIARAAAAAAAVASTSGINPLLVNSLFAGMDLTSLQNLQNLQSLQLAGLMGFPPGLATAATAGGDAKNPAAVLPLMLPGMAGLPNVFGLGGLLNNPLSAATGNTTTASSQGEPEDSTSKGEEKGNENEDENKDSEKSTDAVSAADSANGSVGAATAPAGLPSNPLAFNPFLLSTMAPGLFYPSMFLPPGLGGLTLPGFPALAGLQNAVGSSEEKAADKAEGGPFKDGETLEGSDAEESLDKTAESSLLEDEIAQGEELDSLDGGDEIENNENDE

Molecular target: FLAG-tagged CHD7 (Chromodomain Helicase DNA-binding factor 7) (UniProt Q9P2D1)
Experiment: co-IP

B1: HA-tagged Atoh1 (protein, UniProt P48985 1-351)
chain: MSRLLHAEEWAEVKELGDHHRHPQPHHVPPLTPQPPATLQARDLPVYPAELSLLDSTDPRAWLTPTLQGLCTARAAQYLLHSPELGASEAAAPRDEADSQGELVRRSGCGGLSKSPGPVKVREQLCKLKGGVVVDELGCSRQRAPSSKQVNGVQKQRRLAANARERRRMHGLNHAFDQLRNVIPSFNNDKKLSKYETLQMAQIYINALSELLQTPNVGEQPPPPTASCKNDHHHLRTASSYEGGAGASAVAGAQPAPGGGPRPTPPGPCRTRFSGPASSGGYSVQLDALHFPAFEDRALTAMMAQKDLSPSLPGGILQPVQEDNSKTSPRSHRSDGEFSPHSHYSDSDEAS
  binding: binds
